According to US20220340682A1 (Sanofi, published 2022):
These are yes or no findings as the source states them, for the method shown. Some binding calls cover weakened binding; strength is not graded here.

Key:
[1] = target: T1, cCEACAM5 A3B3, M. fascicularis CEACAM5 A3-B3 domain (499-688) (Macaca fascicularis); assay: ELISA on coated recombinant domains
T1 sequence: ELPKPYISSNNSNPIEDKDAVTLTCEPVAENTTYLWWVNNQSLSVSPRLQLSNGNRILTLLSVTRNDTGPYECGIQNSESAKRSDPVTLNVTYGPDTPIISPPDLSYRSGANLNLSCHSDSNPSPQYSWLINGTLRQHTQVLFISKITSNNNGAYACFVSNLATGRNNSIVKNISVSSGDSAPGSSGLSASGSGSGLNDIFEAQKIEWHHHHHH

[2] = target: cCEACAM5, M. fascicularis CEACAM5 ECD (35-688) (Macaca fascicularis); assay: immunohistochemistry on FFPE pellets of transfected HEK293 cells
[3] = target: T1, cCEACAM5 A3B3, M. fascicularis CEACAM5 A3-B3 domain (499-688) (Macaca fascicularis); assay: ELISA on coated recombinant CEACAM5 protein or domain, anti-mouse IgG-HRP, OD 450 nm
[4] = target: cCEACAM5, M. fascicularis CEACAM5 ECD (35-688) (Macaca fascicularis); assay: as above

binding [1]: binds | binding [2]: binds | binding [3]: binds | binding [4]: binds
B1: antibody MAb2 (antibody, mouse IgG1, V domains shown)
VH: EVQLQESGGVLVKPGGSLKLSCAASGFVFSSYDMSWVRQTPEKRLEWVAYISSGGGITYFPDTVQGRFTVSRDNAKNTLYLQMNSLKSEDTAIYYCAAHYFGSSGPFAYWGQGTLVTVSA
VL: DIQMTQSPASLSASVGETVTITCRASENIFSYLAWYQQKQGKSPQLLVYNTKTLAEGVPSRFSGSGSGTQFSLKINSLQPEDFGSYYCQHHYGTPFTFGSGTKLEIK
notes: Murine IgG1, kappa; Rows are tied to the label as printed
